The values below come from PMC2423482, “UDP-N-Acetylglucosamine 2-Epimerase/N-Acetylmannosamine Kinase (GNE) Binds to Alpha-Actinin 1: Novel Pathways in Skeletal Muscle?” (PLoS ONE, 2008).

By UniProt entry, the sequences of proteins in these tests, tags left out. Residues count along the entry.
UniProt P02769, residues 25-607: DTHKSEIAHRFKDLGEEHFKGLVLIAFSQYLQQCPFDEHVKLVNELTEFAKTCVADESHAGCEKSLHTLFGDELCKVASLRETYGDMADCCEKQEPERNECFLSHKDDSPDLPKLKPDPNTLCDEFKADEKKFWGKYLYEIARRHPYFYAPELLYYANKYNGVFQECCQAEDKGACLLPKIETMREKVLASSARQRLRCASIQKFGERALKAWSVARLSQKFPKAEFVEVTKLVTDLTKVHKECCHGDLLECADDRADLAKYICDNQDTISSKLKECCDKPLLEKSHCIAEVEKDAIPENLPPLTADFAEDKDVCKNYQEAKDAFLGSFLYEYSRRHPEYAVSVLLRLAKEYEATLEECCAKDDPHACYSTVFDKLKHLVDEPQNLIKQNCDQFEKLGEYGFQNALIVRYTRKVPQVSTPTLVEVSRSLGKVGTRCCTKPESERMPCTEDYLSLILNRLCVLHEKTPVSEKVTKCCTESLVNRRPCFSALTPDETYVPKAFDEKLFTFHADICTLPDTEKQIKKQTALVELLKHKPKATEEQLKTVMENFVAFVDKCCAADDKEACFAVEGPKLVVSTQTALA
UniProt P00337: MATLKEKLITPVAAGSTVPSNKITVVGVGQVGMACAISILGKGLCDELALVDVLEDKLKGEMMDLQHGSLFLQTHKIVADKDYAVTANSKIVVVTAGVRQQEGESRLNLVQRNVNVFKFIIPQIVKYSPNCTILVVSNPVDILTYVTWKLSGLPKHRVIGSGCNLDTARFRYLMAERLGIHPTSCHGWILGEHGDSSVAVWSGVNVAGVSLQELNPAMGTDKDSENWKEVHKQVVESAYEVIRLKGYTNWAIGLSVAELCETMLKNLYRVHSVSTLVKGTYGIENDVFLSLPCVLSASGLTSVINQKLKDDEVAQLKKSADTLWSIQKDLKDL

Results are given in words; binding and its absence hold for the method and conditions named. Where a sequence is shown, tags or fusion partners need not be part of it.

The target of test [1] is T1, His-tagged wild type UDP-N-acetylglucosamine 2-epimerase/N-acetylmannosamine kinase (GNE) (human) (UniProt Q9Y223).
T1 sequence: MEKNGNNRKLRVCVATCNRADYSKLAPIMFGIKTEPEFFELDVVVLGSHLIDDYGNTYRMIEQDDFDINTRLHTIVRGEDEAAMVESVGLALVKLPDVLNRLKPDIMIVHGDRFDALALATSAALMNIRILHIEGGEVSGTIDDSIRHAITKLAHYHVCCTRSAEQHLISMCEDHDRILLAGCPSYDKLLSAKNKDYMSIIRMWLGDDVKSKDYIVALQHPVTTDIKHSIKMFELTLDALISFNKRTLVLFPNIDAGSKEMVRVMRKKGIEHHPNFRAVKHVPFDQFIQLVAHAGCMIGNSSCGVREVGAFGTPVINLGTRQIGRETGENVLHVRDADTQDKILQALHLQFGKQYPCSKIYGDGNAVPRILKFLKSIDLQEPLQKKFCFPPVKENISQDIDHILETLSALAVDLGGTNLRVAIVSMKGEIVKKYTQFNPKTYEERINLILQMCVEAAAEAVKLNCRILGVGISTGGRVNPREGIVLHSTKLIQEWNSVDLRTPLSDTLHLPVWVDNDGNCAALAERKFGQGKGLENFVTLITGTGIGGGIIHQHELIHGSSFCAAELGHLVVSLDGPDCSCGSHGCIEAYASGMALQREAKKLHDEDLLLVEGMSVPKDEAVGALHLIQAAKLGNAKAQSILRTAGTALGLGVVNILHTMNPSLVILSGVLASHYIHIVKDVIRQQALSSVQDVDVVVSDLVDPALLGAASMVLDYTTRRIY
Briefly: SPR; BIAcore 3000, CM5 chip, 25°C; GNE immobilised by amine coupling (up to 600 RU); Tris buffer (20 mM Tris pH 7.5, 100-300 mM NaCl, 0.1 mM DTT, 2 mM CaCl2); 30 µl/min; 1:1 Langmuir model; both purified.

For test [2], the target named is T1, His-tagged wild type UDP-N-acetylglucosamine 2-epimerase/N-acetylmannosamine kinase (GNE) (human). Briefly: SPR; BIAcore; GNE immobilised; LDH-B 1-27 µM injected in different buffers (Tris HEPES, PBS or NaPi); both purified.

For “bovine serum albumin (BSA) (from UniProt P02769 25-607)”, in test [1], the binding result is given as “no binding (tested: 1–10 µM)”. As to “recombinant chicken LDH-B protein (from UniProt P00337 1-333) (enzyme)”, in test [2], the binding entry is “no binding (tested: 1–27 µM)”.
